Measured values reported in patent US20230293482A1, “CENTRAL NERVOUS SYSTEM POTENTIATING COMPOSITION” (priority 2020, published 2023).

Assay: In vitro hydrogen peroxide production, FOX assay
Format: physicochemical
Details: for produced amount of hydrogen peroxide at pH 7 compared with pH 3: FOX assay; for hydrogen peroxide production: pH 3.0 and pH 7.0, FOX assay

SMILES | produced amount of hydrogen peroxide at pH 7 compared with pH 3 | hydrogen peroxide production
Oc1cc(O)c2c(c1)O[C@H](c1ccc(O)c(O)c1)[C@H](O)[C@H]2c1c(O)cc(O)c2c1O[C@H](c1ccc(O)c(O)c1)[C@H](O)C2 [dimer] | significantly increased | produced hydrogen peroxide
Oc1cc(O)c2c(c1)O[C@H](c1ccc(O)c(O)c1)[C@H](O)[C@H]2c1c(O)cc(O)c2c1O[C@H](c1ccc(O)c(O)c1)[C@H](O)[C@H]2c1c(O)cc(O)c2c1O[C@H](c1ccc(O)c(O)c1)[C@H](O)C2 [trimer] | significantly increased | produced hydrogen peroxide
